{
  "source": "paper doi:10.1101/2021.03.28.437237",
  "biological_target": "wild-type FOXN1 (human), FLAG-tagged (human) (UniProt O15353)",
  "test": "co-IP",
  "note": "Results are given in words; binding and its absence hold for the method and conditions named. Binding seen in cells or lysates may run through a third protein. Some results given as binding are weak or reduced against the parent protein; the word gives no strength. Tags and fused reporters may be left off the sequences shown.",
  "data": [
    {"binder": "wild-type FOXN1 (human), FLAG-tagged (protein, UniProt O15353 1-648) MVSLPPPQSDVTLPGPTRLEGERQGDLMQAPGLPGSPAPQSKHAGFSCSSFVSDGPPERTPSLPPHSPRIASPGPEQVQGHCPAGPGPGPFRLSPSDKYPGFGFEEAAASSPGRFLKGSHAPFHPYKRPFHEDVFPEAETTLALKGHSFKTPGPLEAFEEIPVDVAEAEAFLPGFSAEAWCNGLPYPSQEHGPQVLGSEVKVKPPVLESGAGMFCYQPPLQHMYCSSQPPFHQYSPGGGSYPIPYLGSSHYQYQRMAPQASTDGHQPLFPKPIYSYSILIFMALKNSKTGSLPVSEIYNFMTEHFPYFKTAPDGWKNSVRHNLSLNKCFEKVENKSGSSSRKGCLWALNPAKIDKMQEELQKWKRKDPIAVRKSMAKPEELDSLIGDKREKLGSPLLGCPPPGLSGSGPIRPLAPPAGLSPPLHSLHPAPGPIPGKNPLQDLLMGHTPSCYGQTYLHLSPGLAPPGPPQPLFPQPDGHLELRAQPGTPQDSPLPAHTPPSHSAKLLAEPSPARTMHDTLLPDGDLGTDLDAINPSLTDFDFQGNLWEQLKDDSLALDPLVLVTSSPTSSSMPPPQPPPHCFPPGPCLTETGSGAGDLAAPGSGGSGALGDLHLTTLYSAFMELEPTPPTAPAGPSVYLSPSSKPVALA", "values": [
      {"measurement": "binding", "value": "binds"}
    ]}
  ]
}
